Results on three molecules are retold here after US20080166352A1.

Protein sequences, listed by entry. Tags and fused reporters are not part of them. Residues count along the entry.
UniProt O75144, residues 19-256: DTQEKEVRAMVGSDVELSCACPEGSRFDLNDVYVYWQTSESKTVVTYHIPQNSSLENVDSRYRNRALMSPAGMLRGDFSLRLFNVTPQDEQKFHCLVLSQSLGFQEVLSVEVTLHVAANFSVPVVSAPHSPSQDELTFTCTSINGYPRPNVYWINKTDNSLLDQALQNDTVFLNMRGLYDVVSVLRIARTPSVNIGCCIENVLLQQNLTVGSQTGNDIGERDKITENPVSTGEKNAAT

Changes are numbered by the printed parent chain. Results are given in words; binding and its absence hold for the method and conditions named. Some results given as binding are weak or reduced against the parent protein; the word gives no strength.

Assay [1] has as its target soluble recombinant human B7RP-1 (human) (UniProt O75144). The assay can be described thus: Biacore and KinExA.
Assay [2] concerns the target cynomolgus monkey B7RP-1 on cynomolgus B cells (cynomolgus monkey). The assay can be described thus: flow cytometry on purified cynomolgus B cells.
The target is the same in assay [3]. In words: flow cytometry (FIG. 12A legend).
Assay [4] concerns the target soluble recombinant human B7RP-1 (human) (UniProt O75144). In words: KinExA.

B1: anti-B7RP1 human monoclonal antibody 2H (antibody, V domains shown)
VH: EVQLVESGGGLVQPGGSLRLSCVGSGFTFSSYWMSWVRQAPGKGLEWVAYIKQDGSEKYYVDSVKGRFTISRDNAKNSLYLQMNSLRAEDTAVYYCARDGILWFGDIPTYWGQGILVTVSS
VL: DIQMTQSPSSLSASVGDRVTITCRASQGISNWLAWYQQKPEKAPKSLIYTASSLQSGVPSRFSGSGSGTDFTLTISSLQPEDFATYYCQQYNSYPRTFGQGTKVEIK
With B1, the binding entry in assay [1] is reported as “binds”.

B2: anti-B7RP1 human monoclonal antibody 16H (antibody, V domains shown)
VH: B1 VH with V23A, S56N, N77K, D99E, I107L, Y110F
VL: B1 VL with T50A, N92D
Turning to B2, the binding result in assay [2] and in assay [3] was “binds” in each case.

B3: anti-B7RP1 human monoclonal antibody 2H germline (antibody, V domains shown)
VH: B1 VH with V23A, G24A, I115T
VL: B1 VL
With B3, the binding result in assay [4] is given as “binds”.
